Reference: article PMC7948415
These are yes or no findings as the source states them, for the method shown.

Key:
[1] = target: SG7.AF (Anopheles freeborni) (UniProt C0HMB5); assay: SEC; Superdex 75 gel filtration of the purified recombinant SG7 proteins; both purified
[2] = target: albicin (Anopheles albimanus); assay: as above

B1: SG7.AF (protein, UniProt C0HMB5 1-119)
chain: ARKHVQELLKTFRRIDFDETRKSVYLQSAKFGVQSQLREPLTKKVLNYWDDVKLSKTCLDRMVTKVNDVKETFYAGFSYACESHNQYSVDCLEAAKPSYLTALGEIRGETEKCLTTRLK
[1]
  binding: no binding

B2: albicin (protein, UniProt A0A1Y9G8D0 27-142)
chain: ANNHIRTVLKLFRTIDLDDSKKSFYLTAAKYGIQTQLREPIIRIVGGYLPSTKLSEACVKNMISEVYEIEGDFYSKFSYACEDHAPYSVECLEDARDDYLTQLVELFKETKKCLRE
[2]
  binding: no binding
